# Test results from patent US20120244563A1.
# Sequences of proteins named here, by UniProt entry; tags and fusion partners are left off. Residues count along the entry.
# UniProt P00738, residues 19-406: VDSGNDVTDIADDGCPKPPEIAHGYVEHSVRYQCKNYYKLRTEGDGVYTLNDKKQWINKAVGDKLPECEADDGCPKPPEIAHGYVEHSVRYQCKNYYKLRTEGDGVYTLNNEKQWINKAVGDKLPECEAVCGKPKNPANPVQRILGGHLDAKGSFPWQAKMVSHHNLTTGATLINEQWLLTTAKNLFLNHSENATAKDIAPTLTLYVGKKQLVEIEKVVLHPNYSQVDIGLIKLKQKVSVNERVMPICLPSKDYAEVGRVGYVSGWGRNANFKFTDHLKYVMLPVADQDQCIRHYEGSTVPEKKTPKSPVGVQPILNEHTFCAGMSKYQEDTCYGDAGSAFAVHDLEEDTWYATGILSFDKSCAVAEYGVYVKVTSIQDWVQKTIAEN
# Results are given in words; binding and its absence hold for the method and conditions named. Some entries that bind do so weakly or less than the wild type.
# B1: Aleuria aurantia lectin (protein, UniProt P18891 2-313, looked up)
# chain: PTEFLYTSKIAAISWAATGGRQQRVYFQDLNGKIREAQRGGDNPWTGGSSQNVIGEAKLFSPLAAVTWKSAQGIQIRVYCVNKDNILSEFVYDGSKWITGQLGSVGVKVGSNSKLAALQWGGSESAPPNIRVYYQKSNGSGSSIHEYVWSGKWTAGASFGSTVPGTGIGATAIGPGRLRIYYQATDNKIREHCWDSNSWYVGGFSASASAGVSIAAISWGSTPNIRVYWQKGREELYEAAYGGSWNTPGQIKDASRPTPSLPDTFIAANSSGNIDISVFFQASGVSLQQWQWISGKGWSIGAVVPTGTPAGW
# modifications: biotin label (site not stated)
# Tests used:
# [1] = biological target: Haptoglobin extracted from the culture supernatant of a pancreatic cancer cell line (PSN-1) (UniProt P00738); test: ELISA of Example 1; haptoglobin coated at 10 ng/mL, biotin-labeled AAL (FIG. 7)
# [2] = biological target: Haptoglobin extracted from serum of pancreatic cancer patients (human) (UniProt P00738); test: ELISA of Example 2; haptoglobin extracted from serum coated on the plate, biotin-labeled AAL (FIG. 9)
binder,measurement,setting,value
B1,binding,[1],binds
same,binding,[2],binds
